Laboratory results taken from paper PMC7426924.
Results are given in words; binding and its absence hold for the method and conditions named. Values belong to the binder of their own block, whether it stands above or below them.

What was measured:
[1] = biological target: Flavobacterium johnsoniae chitinase B (FjChiB) (Flavobacterium johnsoniae) (UniProt A5FB54); assay: crystal structure; FjChiB crystals from 0.15 M magnesium formate, 15% PEG3550; 1.63 Å; one molecule in the asymmetric unit; both purified
[2] = biological target: Flavobacterium johnsoniae chitobiase (FjGH20) (Flavobacterium johnsoniae) (UniProt A5FB64); assay: SEC; HiLoad Superdex 200 16/60, isocratic, 50 mM Tris pH 8.0 with 250 mM NaCl; molecular weights by standard curve (12-200 kDa markers); both purified
[3] = biological target: Flavobacterium johnsoniae chitobiase (FjGH20) (Flavobacterium johnsoniae) (UniProt A5FB64); assay: crystal structure; FjGH20 crystals from 14% PEGMME 5K, 0.1 M Na-malonate pH 7.5; 1.70 Å; two molecules in the asymmetric unit; interface analysed with PISA; both purified

binding [1]: no binding
B1: Flavobacterium johnsoniae chitinase B (FjChiB) (enzyme, UniProt A5FB54 24-340)
chain: TSEKENNPEEVKSKKARVVGYLSADSFDKITSIEFCKLTHLNIAFANPDKNGNLVFDGDIDAVTKYVRSVNSNIVISISLAGGVISTEQAANWSLLIDKPENRPAFMQNISKFVTDHNLDGVDVDLEWDAVTSGYSGFVVELRKELTDRKKLLTAALPNNTRFVNINSEALNAFDFINIMAYDSTGPWSPNKIEQHSSFEFAKEGVEFWKKQNVPSEKLTLGVPFYGYNFTYPEVTSSTFGEIIQAGTQFADQDEIGKIYYNGRPTILKKVEYASQNTGGIMIWELAQDSFGEYSLLEVIHKKYTDLKYKTSGMCGN

binding [2]: no binding
binding [3]: no binding
B2: Flavobacterium johnsoniae chitobiase (FjGH20) (enzyme, UniProt A5FB64 17-688)
chain: QMQKEQLNLMPWPQNVVVNDGNFTLTKNFKVNISGNPDSRIFGGVTRFLRRLDGRTGIFFEQGFITKLNEFPNAELQINCTKNGKIGLYEDESYSLDVKANKITINATSDLGALHGLETLLQLLQNDSKKFYFPVSQISDFPRFTWRGLMLDASRHFQPVDVVKRNLDALAAMKMNVFHWHLVDDQGWRIETKKHPKLIELASDGLYYTQEEIRNIVKYADERGILIVPEIDVPGHGSAILTAYPEIGSKVITLTGGTSEKNIQGTAISTYRIERNAGIFSPTLDPSNPKTYKILSELFDEVCPLFPGAYFHIGGDENEGKDWDANPKIQEFKKKHNLKTNHELQTYFTMQLAPMLKKHGKQLMGWEEILTKDLSKEAIVHSWRGPNEGMVAGQSLVDAVKKGYKTVLSNGFYIDLMYPVASHYLNDPMPKGADLSAEEKARILGGEATMWTELATPETFDSRVWPRTAAIAERLWSAENITDVANMRKRLESVSFRLEELGLTHIKNKAVILRNIANNQNIKSVNEFTNVCEPLKGYTRNKGGTEYQMYSPFTLFADACTPDAKDSLAFDEAVSQYLANKSADNKAKVAAFFNKWIAVNKGLVELSANAPLVQPILPLSKKLSDASQELLLVLDNKSTLKTADLKTLIEQCNTKDHADVELSVYESLKKLI
